# From patent publication US20150184221
# For at least one entry, the source does not settle the construct or the ends of the probe. For some assays here: Negatives hold for the conditions tested.
# Assays:
# R.AvaI = assay: enzyme reaction in vitro; details: approx 380 bp ROligo; printed sequence is the central primer region; purified recombinant protein; protein details: commercially available
# [1] = test system: R.SphI-type activity (Cyanobacterium sp. (first strain)); assay: enzyme reaction in vitro; details: extract, no double band; protein in an extract
# R.SphI = assay: enzyme reaction in vitro; details: approx 380 bp ROligo; printed sequence is the central primer region; purified recombinant protein; protein details: commercially available
# [2] = test system: R.PvuII-type activity (Lyngbya sp. (first strain)); assay: enzyme reaction in vitro; details: protein in an extract
# R.AvaII = assay: enzyme reaction in vitro; details: approx 380 bp ROligo; printed sequence is the central primer region; purified recombinant protein; protein details: commercially available
# [3] = test system: R.HaeIII-type activity (Cyanobacterium sp. (first strain)); assay: enzyme reaction in vitro; details: extract, no double band; protein in an extract
# M.CviPI = assay: activity assay; details: methylation with SAM, 37 C overnight; protects from Lyngbya extract; purified recombinant protein; protein details: commercially available
sequence,measurement,setting,value
GGTTACAGTCTGTAACCTCGGGCAGTTTTCAGCCACTCCAAACG (double strand) [ROligo.AvaI],activity on this sequence,R.AvaI,active
GGTTACAGTCTGTAACGCATGTCAGTTTTCAGCCACTCCAAACG (double strand) [ROligo.NspI],activity on this sequence,[1],not active
GGTTACAGTCTGTAACGCATGCCAGTTTTCAGCCACTCCAAACG (double strand) [ROligo.SphI],activity on this sequence,R.SphI,active
GTTACAGTCTGTAACCAGCTGACAGTTTTCAGCCACTCCAAACG (double strand) [ROligo.PvuII Gm5C-methylated],activity on this sequence,"[2]; 5mC at GC sites (CAGm5CTG), cleavage blocked by M.CviPI methylation, variant of ROligo.PvuII",not active
CGGTTACAGTCTGTAACGGTCCCAGTTTTCAGCCACTCCAAACG (double strand) [ROligo.AvaII],activity on this sequence,R.AvaII,active
same,activity on this sequence,[3],not active
GTTACAGTCTGTAACCAGCTGACAGTTTTCAGCCACTCCAAACG (double strand) [ROligo.PvuII],activity on this sequence,M.CviPI,active
same,activity on this sequence,[2]; Lyngbya extract,active
